{
  "source": "patent US20030073826A1",
  "about": "(priority 2001, published 2003)",
  "key": {"[1]": {"conditions": "for water content at the start of the DMSG run: ambient humidity, sample as received; for moisture sorbed at 80%RH: second scan", "procedure": "Approximately 10 mg samples were used in the balance, samples were run as received. The humidity was set at ambient conditions on the day analysis began. […] The scan rate was 3% RH/step. The mass was measured every two minutes and an equilibrium window of 5 points within 0.001 mg. […] The Visual Basic program dmsgscn2.exe was used to control the data collection and export the information to an Excel spreadsheet.\n(§1) The humidity was set at ambient conditions on the day analysis began. […] The mass was measured every two minutes and an equilibrium window of 5 points within 0.001 mg.\nas §1"}, "[2]": {"conditions": "upon trituration in aqueous media, or at stressed humidity conditions"}, "[3]": {"conditions": "background statement; cited from earlier work"}},
  "note": "Counter-ions that a name gives are not always drawn. Like-named read-outs stand apart in the source and are kept apart here.",
  "data": [
    {"smiles": "CCC[C@@H]1C[C@@H](C(=O)NC(C(C)Cl)C2OC(SC)C(O)C(O)C2O)N(C)C1", "note": "(some centres unmarked) [Form II, clindamycin free base]", "values": [
      {"measurement": "water content at the start of the DMSG run", "setting": "[1]", "result": "approximately 2%"},
      {"measurement": "solid form conversion", "setting": "[2]", "result": "will convert to Form I"}
    ]},
    {"smiles": "CCC[C@@H]1C[C@@H](C(=O)NC(C(C)Cl)C2OC(SC)C(O)C(O)C2O)N(C)C1", "note": "(some centres unmarked) [Form I, clindamycin free base]", "values": [
      {"measurement": "water content at the start of the DMSG run", "setting": "[1]", "result": "approximately 4%"}
    ]},
    {"smiles": "CCC[C@@H]1C[C@@H](C(=O)NC(C(C)Cl)C2OC(SC)C(O)C(O)C2O)N(C)C1", "note": "(some centres unmarked) [clindamycin free base, reference compound]", "values": [
      {"measurement": "moisture sorbed at 80%RH", "setting": "[1]; amorphous material formed from Form II", "result": "approximately 2%"},
      {"measurement": "moisture sorbed at 80%RH", "setting": "[1]; amorphous material formed from Form III", "result": "about 6%"}
    ]},
    {"smiles": "CCC[C@@H]1C[C@@H](C(=O)N[C@@H]([C@H]2O[C@H](SC)[C@H](O)[C@@H](O)[C@H]2O)[C@H](C)Cl)N(C)C1", "note": "[Clindamycin hydrochloride, clindamycin hydrochloride]", "values": [
      {"measurement": "absorption following oral administration", "setting": "[3]", "result": "rapid and nearly complete"}
    ]},
    {"smiles": "CCC[C@@H]1C[C@@H](C(=O)NC(C(C)Cl)C2OC(SC)C(O)C(O)C2O)N(C)C1", "note": "(some centres unmarked) [Form III, clindamycin free base]", "values": [
      {"measurement": "water content retained at moderate humidity", "setting": "[1]; 10%-80% RH, 4-scan DMSG", "result": "about 4.5%"},
      {"measurement": "water content at the start of the DMSG run", "setting": "[1]", "result": "approximately 4.5%"}
    ]}
  ]
}
